In PubChem BioAssay AID1347426 (Functional Genomics Laboratory (NCATS/FGL), 2020):
Out of some 31,000 sequences screened, about 1,400 (4.5%) were called active.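 How the source made its calls: active means median seed-adjusted z-score above 1 or below -1; inactive means the rest.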 The list shows a part of the results.

experiment: Novel Modifiers of Survival Motor Neuron (SMN) Protein: Gene Identification via Genome-wide siRNA Screen; conditions: HEK293T SMN2-luciferase reporter, siRNA knockdown, 72 h; actives lie on both sides;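 further: luminescence tracks full-length SMN protein made from the SMN2 reporter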
How it was run: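 Each of three siRNAs per gene is reverse-transfected (1 pmol) into reporter HEK293T cells whose luciferase output tracks SMN protein level. After 72 h culture, ONE-Glo luminescence is control-normalized, log10-transformed and MAD-standardized; Common Seed Analysis deprioritizes seed-driven hits.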

Sequence	median seed-adjusted z-score
GGAAUUAUGUAACAAGUGUTT against ZDHHC21	inactive: 0.216
GGCGGAUCUUUGGACAGAATT against PRTN3	inactive: -0.49
GCAGAUAUGGUAUUAGACATT against SLC4A7	inactive: 0
CGAGAGACUUAUCAAAAAUTT against ACOX3	inactive: 0.658
CAGUUGUACUGGACGGCUATT against PALLD	inactive: -0.307
CUAUGUACCAAGAUUGAUATT against WFDC8	inactive: 0.0427
CGUACUUUCCUUCAUCGAATT against XPOT	inactive: 0.366
GCUCUUCGCUUUAUCCUCATT against VARS2	inactive: 0.288
CACCUGUACUUAUCCCGAATT against MEGF10	inactive: 0.622
CCACAACUGCAACAAUUCATT against GPR108	inactive: 0.369
GGCCGAGUGGGAUGACUAUTT against PEBP1	inactive: 0.641
CACAAAAUACGGCAGAGAATT against HCCA2	inactive: 0.862
CAGAUGAUCUGACCAUUAATT against PSMA7	inactive: 0.0726
GCUUAGACCUGUCGGAUGATT against PIK3C3	inactive: 0
GCCUUCAACCGGGAACAGATT against MBD1	inactive: 0
CAAUAUCUGACAACAACAATT against CLDN10	inactive: 0.0399
GAUCUAUCUUCAGAACGGATT against SGOL2	inactive: 0.114
GAAUUGCAAAUCACCAUUUTT against ONECUT1	inactive: -0.367
UGAAGUACAUGAAUAAACATT against STK32A	inactive: 0.052
GGAGCACAAUAGAUCUGAATT against SEPX1	inactive: -0.0545
CAGUGAAGCUAGAAUCUCATT against CSNK1A1	inactive: -0.608
CACUUACCAAGGAUACCAATT against PHC2	inactive: 0.177
GGCUCAAGUCUCAAACAGATT against RAB11FIP4	inactive: 0.249
CUACACCUGUUUUGACCAATT against CDC14A	inactive: 0.117
GCGUAAAGGUUGUACAAGATT against NPHS2	inactive: -0.857
CGGUUGAAGUGUAGGGAGATT against TCEA1	inactive: 0
GAUAGAAGCAUGGAAUUGATT against MRS2	active: 1.38

Random excerpt: two records from the list, in no set order.
Sequence	median seed-adjusted z-score
CACCUGUACUUAUCCCGAATT against MEGF10	inactive: 0.622
GGAAUUAUGUAACAAGUGUTT against ZDHHC21	inactive: 0.216

(cont.)

Sequence	median seed-adjusted z-score
GUUUUAUCAGAGGCCCUAATT against CDS2	inactive: -0.811
CGACCUACCCACUACAAUATT against MAN2C1	inactive: -0.489
GGUACGACAUCUUCCAGUATT against GRM6	inactive: -0.0544
GCAGAGUUUCGUACCAGAATT against KPNA5	inactive: -0.174
GAGUUAGGGAAAAAGCGUATT against ANK3	inactive: 0.0252
UGAGAUCGCUGUCAUGUUATT against PSMD10	inactive: 0.265
GGAGCGACACGCUAAUUCATT against SSH2	inactive: 0.357
CAAUUGACCAGAUUAACAATT against GRM8	inactive: 0.129
CCAGCCCUGUGCUCUCUUATT against FBXL6	inactive: -0.182
GGCCCAGAAUGAUACUACATT against MAK10	inactive: 0.124
UCCUUGUGCUGGAUCUACATT against PCDHA9	inactive: -0.295
CCACGAUAUUGUAAACAGATT against CPSF3	inactive: -0.918
GGUGCGGAGAGAUGAGAUATT against PPM1M	inactive: 0
GCGACUCAAUGGACGGAGATT against ZNF282	inactive: 0.274
GGAUGUCAUCGCUCAGUUUTT against SLC10A5	inactive: 0.539
CCGCUUUUGGAGUCAGUAATT against POLQ	inactive: 0.203
GGGACAUCAAGGGAGCUAATT against MAP4K1	inactive: 0
CUGGAGAAGUCAUUGCAUUTT against RIN1	inactive: -0.0694
CUGUCAUUGGUUUCCCUGATT against ZNF574	inactive: -0.528
CGUUACUAAUACAAACAAATT against NACC2	inactive: 0.144
CCAGAACUCCAUUCCCUGATT against HOOK2	inactive: 0.0914
CAAGAUUCCGGAAAGCGUATT against LOXL2	inactive: 0.177
GCUCAAAUUGUUUUGCGUUTT against AKR1D1	inactive: 0.211
GGGAAUUCCUAAUACAGAUTT against B3GALTL	inactive: -0.259
GAGAUUGCUCGAGACUUUATT against DDB1	inactive: 0.231
GCCUUUAUGCAAGUUGUAATT against NME4	inactive: -0.155
ACCUGACACUGGACGGGAATT against CD14	inactive: 0.0723
